From publication PMC8457831, “Structural basis for diguanylate cyclase activation by its binding partner in Pseudomonas aeruginosa” (eLife, 2021)

Legend:
[1] = molecular target: GST-SiaD (Pseudomonas aeruginosa); experiment: pull-down; 50 ug purified GST-SiaD (or GST) on glutathione magnetic beads, blocked with 5% skim milk, incubated with E. coli lysate holding the Flag-tagged protein, 4°C, six washes, western blot; only the target purified
[2] = molecular target: SiaD (full length, sumo-His tag removed) (Pseudomonas aeruginosa); experiment: SAXS; synchrotron solution SAXS (SEC-SAXS for SiaD), 20 mM HEPES pH 8.0, 150 mM NaCl, 1 mM DTT, 25°C; 8 mg/ml SiaD or 11 mg/ml SiaC-SiaD complex; both purified
[3] = molecular target: SiaD (full length, sumo-His tag removed) (Pseudomonas aeruginosa); experiment: SEC-MALS; SiaC-SiaD complexes (wild type and SiaD motif mutants) at 2 mg/ml, WTC-030S5 column, 20 mM HEPES pH 7.0, 150 mM NaCl, DTT; both purified
[4] = molecular target: SiaD^S82A-Q86A (Pseudomonas aeruginosa); experiment: SEC; Superdex200, 20 mM HEPES pH 7.0, 300 mM NaCl, 1 mM DTT; proteins alone or preformed SiaC-SiaD complexes, with or without excess c-di-GMP added to the complex; mutant complexes also after overnight standing; both purified
[5] = molecular target: SiaD^S50A-Q54A (Pseudomonas aeruginosa); experiment: as above
[6] = molecular target: SiaD with sumo-His tag (Pseudomonas aeruginosa); experiment: as above
[7] = molecular target: SiaD^R201A with sumo-His tag (Pseudomonas aeruginosa); experiment: SEC; Superdex200, 20 mM HEPES pH 7.0, 300 mM NaCl, 1 mM DTT; SiaD or SiaD R201A incubated with c-di-GMP before complex formation with SiaC; both purified
[8] = molecular target: SiaD with sumo-His tag (Pseudomonas aeruginosa); experiment: condition: only SiaD incubated with c-di-GMP before SiaC; SEC; Superdex200, 20 mM HEPES pH 7.0, 300 mM NaCl, 1 mM DTT; SiaD or SiaD R201A incubated with c-di-GMP before complex formation with SiaC; both purified
[9] = molecular target: SiaD (full length, sumo-His tag removed) (Pseudomonas aeruginosa); experiment: crystal structure; SiaC-SiaD complex (10 mg/ml) with GpCpp 1:5, sitting drops at 18°C, space group C222(1), 2.65 Å; both purified

Binder | binding [1] | binding [2] | binding [3] | binding [4] | binding [5] | binding [6] | binding [7] | binding [8] | binding [9]
SiaC-Flag (protein, UniProt A0A072ZHB4 1-126) MSDLHIPGTQSTPAIQGDWQAGRLSMQGDSYPENSYELFGQVIDWVERFLADGQRPLELDLRLLYLNTSSIKAMMDILDLLEEAHQGGRPVSLRWHYDRRNERVAELAEEFREDCSFPFAIQAHDE | binds | – | – | – | – | – | – | – | –
SiaC (sumo-His tag removed) (protein, UniProt A0A072ZHB4 1-126) MSDLHIPGTQSTPAIQGDWQAGRLSMQGDSYPENSYELFGQVIDWVERFLADGQRPLELDLRLLYLNTSSIKAMMDILDLLEEAHQGGRPVSLRWHYDRRNERVAELAEEFREDCSFPFAIQAHDE | – | binds | binds | binds | binds | binds | binds | no binding | binds

No constants are given. Whether binding was seen depends on the method and setting. For part of these data: Binding can be weak; no strength is given. Where a sequence is shown, tags or fusion partners need not be part of it. For part of these data: Binding seen in cells or lysates may run through a third protein.
